These are yes or no findings as the source states them, for the method shown. A result given as binding can be weak or reduced; the word gives no strength.
T1: Fenna-Matthews-Olson (FMO) complex (Chlorobaculum tepidum (endogenous in C. tepidum TLS, DSM 12025)) (UniProt Q46393)
T1 sequence: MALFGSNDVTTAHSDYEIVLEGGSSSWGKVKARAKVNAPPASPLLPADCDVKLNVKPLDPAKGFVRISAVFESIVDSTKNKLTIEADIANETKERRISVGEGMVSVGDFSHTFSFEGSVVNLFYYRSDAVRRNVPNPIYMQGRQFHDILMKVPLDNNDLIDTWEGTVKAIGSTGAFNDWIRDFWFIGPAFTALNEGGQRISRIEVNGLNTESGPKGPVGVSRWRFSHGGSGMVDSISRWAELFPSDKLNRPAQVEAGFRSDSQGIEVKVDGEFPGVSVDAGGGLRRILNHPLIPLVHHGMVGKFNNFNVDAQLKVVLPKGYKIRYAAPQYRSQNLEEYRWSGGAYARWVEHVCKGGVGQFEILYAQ

Protein sequences, listed by entry. Tags and fused reporters are not part of them. Lines headed by an entry give the natural chain unless they say otherwise; changes in a name come on top.
UniProt Q8KDI3: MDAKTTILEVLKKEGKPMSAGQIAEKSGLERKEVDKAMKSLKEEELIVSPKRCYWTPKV
UniProt Q8KG87: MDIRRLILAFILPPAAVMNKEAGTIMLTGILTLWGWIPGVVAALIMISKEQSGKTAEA

T2: PscC (cytochrome c subunit) (Chlorobaculum tepidum (endogenous in C. tepidum TLS, DSM 12025)) (UniProt O07091)
T2 sequence: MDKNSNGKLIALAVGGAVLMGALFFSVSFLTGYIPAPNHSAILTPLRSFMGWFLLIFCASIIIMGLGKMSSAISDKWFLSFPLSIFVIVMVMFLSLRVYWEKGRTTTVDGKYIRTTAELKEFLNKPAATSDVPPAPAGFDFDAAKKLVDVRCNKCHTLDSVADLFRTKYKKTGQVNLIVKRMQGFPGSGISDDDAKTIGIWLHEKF

T3: PscB (Chlorobaculum tepidum (endogenous in C. tepidum TLS, DSM 12025)) (UniProt Q8KAY1)
T3 sequence: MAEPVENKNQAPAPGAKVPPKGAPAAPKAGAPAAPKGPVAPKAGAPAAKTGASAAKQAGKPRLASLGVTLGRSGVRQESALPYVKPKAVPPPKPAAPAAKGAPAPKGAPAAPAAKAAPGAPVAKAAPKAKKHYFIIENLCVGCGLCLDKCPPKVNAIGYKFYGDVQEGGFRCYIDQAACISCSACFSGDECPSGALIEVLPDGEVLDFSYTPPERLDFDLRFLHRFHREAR


Assays:
Assay in all cases: cryo-EM structure; single-particle cryo-EM of the native supercomplex extracted with DDM from C. tepidum membranes; RC-FMO2 at 3.08 Å (local 2.92 and 3.06 Å), RC-FMO1 at 3.49 Å; 20 mM Tris-Cl pH 8.0, 200 mM NaCl, 0.17 mM DDM; both purified
[1] = target: T1, Fenna-Matthews-Olson (FMO) complex (Chlorobaculum tepidum (endogenous in C. tepidum TLS, DSM 12025))
[2] = target: T2, PscC (cytochrome c subunit) (Chlorobaculum tepidum (endogenous in C. tepidum TLS, DSM 12025))
[3] = target: T3, PscB (Chlorobaculum tepidum (endogenous in C. tepidum TLS, DSM 12025))
[4] = target: PscA subunit (reaction center core protein) (Chlorobaculum tepidum (endogenous in C. tepidum TLS, DSM 12025))

Molecule	binding [1]	binding [2]	binding [3]	binding [4]
PscE (from UniProt Q8KDI3)	binds	binds	–	–
PscC (cytochrome c subunit) (protein, UniProt O07091 1-206) MDKNSNGKLIALAVGGAVLMGALFFSVSFLTGYIPAPNHSAILTPLRSFMGWFLLIFCASIIIMGLGKMSSAISDKWFLSFPLSIFVIVMVMFLSLRVYWEKGRTTTVDGKYIRTTAELKEFLNKPAATSDVPPAPAGFDFDAAKKLVDVRCNKCHTLDSVADLFRTKYKKTGQVNLIVKRMQGFPGSGISDDDAKTIGIWLHEKF	–	–	–	binds

The next lines start with the values.

binding [1]	binding [2]	binding [3]	binding [4]	Molecule
binds	–	binds	–	PscF (from UniProt Q8KG87)
–	–	–	binds	Fenna-Matthews-Olson (FMO) complex (natural protein, UniProt Q46393 1-366, looked up, FMO bacteriochlorophyll a protein of Chlorobaculum tepidum TLS; homotrimer, each monomer with eight BChl a; Two trimers (FMO1, FMO2) of the same protein sit on one reaction center in the RC-FMO2 structure; they are one molecule here; also called FMO trimer; FMO1) MALFGSNDVTTAHSDYEIVLEGGSSSWGKVKARAKVNAPPASPLLPADCDVKLNVKPLDPAKGFVRISAVFESIVDSTKNKLTIEADIANETKERRISVGEGMVSVGDFSHTFSFEGSVVNLFYYRSDAVRRNVPNPIYMQGRQFHDILMKVPLDNNDLIDTWEGTVKAIGSTGAFNDWIRDFWFIGPAFTALNEGGQRISRIEVNGLNTESGPKGPVGVSRWRFSHGGSGMVDSISRWAELFPSDKLNRPAQVEAGFRSDSQGIEVKVDGEFPGVSVDAGGGLRRILNHPLIPLVHHGMVGKFNNFNVDAQLKVVLPKGYKIRYAAPQYRSQNLEEYRWSGGAYARWVEHVCKGGVGQFEILYAQ
